The list does not hold the whole screen: it gathers tests that were run many times, whatever their T/C, doses with no T/C, and many T/C values between a quarter and a half above the control. Further doses and runs are listed elsewhere. T/C: endpoint of the treated group in % of that of the vehicle group. Some doses have a count of surviving animals in place of a T/C: the source holds a T/C of zero for them, seemingly a mark for toxic or unscored doses. Some doses without a T/C left all or most animals alive at the check, yet need not have been tolerated: the source hardly ever lists a survival T/C far under the control, and the zero likely stands for such cases as well. Survivors were counted at the toxicity check, usually on the fifth day, unless a day is given; later deaths do not show. Schedule codes are those of the source, taken here to give the interval after Q, in days (D) or hours (H), and the number of doses after X. Some schedules carry Z or #; the key to these is not given. Some structures stand for samples that the source files as different forms (salt, stereo form or complex); doses refer to the form tested. Where survival is the endpoint, the PubChem record calls one and a half times the control and up active, and a quarter to a half above the control has no call in these data; cut-offs in other NCI protocols can differ. Some entries hold several experiments; the results are listed from low to high. Some T/C values carry the count of animals alive at the toxicity check (mostly the fifth day); without a count, all were alive then.

In this experiment the test system is BDF1 mice, L1210 Methyl-GAG-resistant leukemia, survival T/C. As to the kind of experiment: NCI In Vivo Anticancer Drug Screen. Data for tumor model L1210 Leukemia resistant to Methyl-GAG; NSC 32946 (subcutaneous) in B6D2F1 (BDF1) mice. As to conditions: T/C endpoint: mean survival time, higher T/C = longer survival. The procedure: The antitumor activity of compounds was measured in mice bearing transplantable tumors. Survival or tumor size were measured and the results are expressed as the measurement made in the treated group (T) divided by the measurement made in the vehicle treated control group (C). The tumor model used in this assay is L1210 Leukemia resistant to Methyl-GAG; NSC 32946 (subcutaneous) in B6D2F1 (BDF1) mice

Where [1] appears, read: dose: 25.0 mg/kg/injection, schedule: Q01DX Z (ip), vehicle: carboxymethylcellulose (CMC).
Where [2] appears, read: dose: 100.0 mg/kg/injection, schedule: Q01DX Z (ip), vehicle: carboxymethylcellulose (CMC).
Where [3] appears, read: dose: 200.0 mg/kg/injection, schedule: Q01DX Z (ip), vehicle: carboxymethylcellulose (CMC).
[4] abbreviates: dose: 400.0 mg/kg/injection, schedule: Q01DX Z (ip), vehicle: carboxymethylcellulose (CMC).
[5] abbreviates: dose: 50.0 mg/kg/injection, schedule: Q01DX Z (ip), vehicle: carboxymethylcellulose (CMC).
Setting [6] is: dose: 250.0 mg/kg/injection, schedule: Q01DX Z (ip), vehicle: carboxymethylcellulose (CMC).
The mark [7] stands for this setting: dose: 500.0 mg/kg/injection, schedule: Q01DX Z (ip), vehicle: carboxymethylcellulose (CMC).
[8] abbreviates: dose: 1000.0 mg/kg/injection, schedule: Q01DX Z (ip), vehicle: carboxymethylcellulose (CMC).
Where [9] appears, read: dose: 250.0 mg/kg/injection, schedule: Q01DX Z (sc), vehicle: steroid suspending solution.
Where [10] appears, read: dose: 500.0 mg/kg/injection, schedule: Q01DX Z (sc), vehicle: steroid suspending solution.
Setting [11] is: dose: 2.0 mg/kg/injection, schedule: Q01DX Z (ip), vehicle: saline.

Regarding `CN(Cc1cnc2nc(N)nc(N)c2n1)c1c(Cl)cc(C(=O)NC(CCC(=O)O)C(=O)O)cc1Cl` (centres undefined), under setting [1], the T/C is 143 % of control. Also, the survivor count runs as follows: under setting [2], 5 of 6; under setting [3], 4 of 6; under setting [4], 3 of 6.
As for `[I][Hg][CH2]C1COC([CH2][Hg][I])CO1` (centres undefined), the survivor count (dose: 120.0 mg/kg/injection, schedule: Q01DX Z (ip), vehicle: carboxymethylcellulose (CMC)) was 0 of 6.
As to `C[n+]1c2ccccc2nc2c(N)cc(N)cc21`, the survivor count under setting [5] is 0 of 6.
For `NC(=O)c1ccc(N)nc1`, the T/C was 140 % of control [5 of 6 alive] (dose: 1.25 mg/kg/injection, schedule: Q01DX Z (ip), vehicle: water) and 130 % of control (dose: 2.5 mg/kg/injection, schedule: Q01DX Z (ip), vehicle: saline). The survivor count is on record as 6 of 6 (dose: 2.5 mg/kg/injection, schedule: Q01DX Z (ip), vehicle: water) and 6 of 6 (dose: 5.0 mg/kg/injection, schedule: Q01DX Z (ip), vehicle: water).
As for `Cn1cc(NC(=O)c2cc(NC(=O)CN=C(N)N)cn2C)cc1C(=O)NCCC(=N)N`, the survivor count (dose: 50.0 mg/kg/injection, schedule: Q01DX Z (ip), vehicle: saline) is on record as 1 of 6.
`CN(C)c1ccc(/C=C/c2ccnc3ccccc23)cc1`: the survivor count is, setting by setting: (dose: 50.0 mg/kg/injection, schedule: Q01DX Z (ip), vehicle: water) 6 of 6; (dose: 100.0 mg/kg/injection, schedule: Q01DX Z (ip), vehicle: water) 5 of 6; under setting [3], 6 of 6; (dose: 200.0 mg/kg/injection, schedule: Q01DX Z (ip), vehicle: water) 1 of 6.
As to `Nc1nc(=S)c2ncn(C3OC(CO)C(O)C3O)c2[nH]1` (centres undefined), the survivor count (dose: 5.0 mg/kg/injection, schedule: Q01DX Z (ip), vehicle: carboxymethylcellulose (CMC)) is 6 of 6 and the survivor count (dose: 10.0 mg/kg/injection, schedule: Q01DX Z (ip), vehicle: carboxymethylcellulose (CMC)) is given as 6 of 6.
`CCn1cnc2c(=S)nc[nH]c21`: the T/C is 145 % of control (dose: 62.5 mg/kg/injection, schedule: Q01DX Z (ip), vehicle: carboxymethylcellulose (CMC)) and 134 % of control (dose: 125.0 mg/kg/injection, schedule: Q01DX Z (ip), vehicle: carboxymethylcellulose (CMC)). The survivor count is, setting by setting: under setting [6], 6 of 6; under setting [7], 1 of 6; under setting [8], 0 of 6.
For the molecule `CN(C)c1ccc(Nc2c3ccccc3nc3ccccc23)cc1`, the T/C reads like this: under setting [5], 128 % of control; under setting [2], 131 % of control.
Regarding `CSc1ncnc2c1ncn2C1OC(CO)C(O)C1O` (centres undefined), the T/C runs as follows: under setting [1], 125 % of control [5 of 6 alive]; under setting [5], 128 % of control. Further, the survivor count is 4 of 6 under setting [2], 5 of 6 under setting [3] and 0 of 6 under setting [4].
For the molecule `O=C(O)CCCc1ccc(N(CCCl)CCCl)cc1`, under setting [5], the survivor count is on record as 4 of 6.
Turning to `CS(=O)(=O)OCCCCOS(C)(=O)=O`, the survivor count reads like this: (dose: 12.8 mg/kg/injection, schedule: Q01DX Z (ip), vehicle: methylcellulose (MC)) 6 of 6; (dose: 25.6 mg/kg/injection, schedule: Q01DX Z (ip), vehicle: methylcellulose (MC)) 6 of 6.
In the case of `N#[N+]c1cnc([O-])[nH]c1=O`, the survivor count is, setting by setting: (dose: 20.0 mg/kg/injection, schedule: Q01DX Z (ip), vehicle: carboxymethylcellulose (CMC)) 3 of 6; (dose: 40.0 mg/kg/injection, schedule: Q01DX Z (ip), vehicle: carboxymethylcellulose (CMC)) 0 of 6.
As for `C[C@H](N)C(=O)N[C@@H]1[C@H]2C(=C(O)C[C@@H](O)[C@@H]2O)C(=O)O[C@@H]1C`, the T/C (dose: 500.0 mg/kg/injection, schedule: Q01DX Z (ip), vehicle: saline) was 149 % of control and the T/C (dose: 1000.0 mg/kg/injection, schedule: Q01DX Z (ip), vehicle: saline) is 129 % of control.
On to `CCN(CC)C(=S)S`, for which the survivor count (dose: 2000.0 mg/kg/injection, schedule: Q01DX Z (ip), vehicle: other) is on record as 1 of 6.
As to `CN(C)c1nc(N(C)C)nc(N(C)C)n1`, for the setting “dose: 2000.0 mg/kg/injection, schedule: Q01DX Z (ip), vehicle: methylcellulose (MC)”, the survivor count is given as 4 of 6.
As for `Nc1nc2n[nH]nc2c(=O)[nH]1`, the T/C (dose: 50.0 mg/kg/injection, schedule: Q01DX Z (ip), vehicle: other) was 136 and 143 % of control.
As for `C[C@]12C=CC(=O)C=C1CC[C@@H]1[C@@H]2C(=O)C[C@@]2(C)[C@H]1CC[C@]2(O)C(=O)CO`, the T/C was 145 % of control (dose: 50.0 mg/kg/injection, schedule: Q01DX Z (sc), vehicle: steroid suspending solution); 146 % of control (dose: 100.0 mg/kg/injection, schedule: Q01DX Z (sc), vehicle: steroid suspending solution); 131 % of control (dose: 150.0 mg/kg/injection, schedule: Q01DX Z (sc), vehicle: steroid suspending solution); 134 % of control [5 of 6 alive] (dose: 200.0 mg/kg/injection, schedule: Q01DX Z (sc), vehicle: steroid suspending solution); 136 % of control (dose: 300.0 mg/kg/injection, schedule: Q01DX Z (sc), vehicle: steroid suspending solution).
For the molecule `CCCSc1ncnc2nc[nH]c12`, the survivor count under setting [3] is reported as 0 of 6.
On to `C[C@]12C=CC(=O)C=C1CC[C@@H]1[C@@H]2[C@@H](O)C[C@@]2(C)[C@H]1CC[C@]2(O)C(=O)CO`, for which, under “dose: 62.5 mg/kg/injection, schedule: Q01DX Z (sc), vehicle: steroid suspending solution”, the T/C is 143 % of control. Besides, the survivor count under setting [9] is on record as 0 of 6 and the survivor count under setting [10] is on record as 6 of 6.
Consider `C[C@]12CCC(=O)C=C1CC[C@@H]1[C@@H]2CC[C@@]2(C)[C@H]1CC[C@]2(C)O`, for which the survivor count under setting [9] was 1 of 6 and the survivor count under setting [10] is 0 of 6.
Turning to `Cn1cnc([N+](=O)[O-])c1Sc1nc(N)nc2nc[nH]c12`, the survivor count (dose: 16.0 mg/kg/injection, schedule: Q01DX Z (ip), vehicle: carboxymethylcellulose (CMC)) was 6 of 6; the survivor count (dose: 32.0 mg/kg/injection, schedule: Q01DX Z (ip), vehicle: carboxymethylcellulose (CMC)) is on record as 5 of 6; the survivor count (dose: 64.0 mg/kg/injection, schedule: Q01DX Z (ip), vehicle: carboxymethylcellulose (CMC)) is 6 of 6.
Consider `CSCS(=O)C[C@H](CO)NC(=O)/C=C/c1c(C)[nH]c(=O)[nH]c1=O` (some centres undefined), for which the survivor count under setting [11] is 0 of 6.
Regarding `O=c1[nH]c(=O)n(C2CC(O)C(CO)O2)cc1I` (centres undefined), the T/C under setting [6] was 135 % of control. Besides, the survivor count by setting is: under setting [7], 6 of 6; under setting [8], 6 of 6.
With `Nc1nc(N)c2nc(CNc3ccc(C(=O)NC(CCC(=O)O)C(=O)O)cc3)cnc2n1` (centres undefined), the T/C (dose: 16.0 micrograms/kg/injection, schedule: Q01DX Z (ip), vehicle: alkali diluted with saline) is 140 % of control. For the same molecule, the survivor count was 4 of 6 (dose: 63.0 micrograms/kg/injection, schedule: Q01DX Z (ip), vehicle: alkali diluted with saline); 6 of 6 (dose: 250.0 micrograms/kg/injection, schedule: Q01DX Z (ip), vehicle: alkali diluted with saline); 3 of 6 (dose: 500.0 micrograms/kg/injection, schedule: Q01DX Z (ip), vehicle: alkali diluted with saline).
Consider `COc1cc2c(c(OC)c1OC)-c1ccc(OC)c(=O)cc1[C@@H](NC(C)=O)CC2`, for which the survivor count runs as follows: (dose: 0.5 mg/kg/injection, schedule: Q01DX Z (ip), vehicle: saline) 6 of 6; (dose: 1.0 mg/kg/injection, schedule: Q01DX Z (ip), vehicle: saline) 5 of 6; under setting [11], 0 of 6.

These data come from PubChem BioAssay AID306 (DTP/NCI, 2004).
